About 7,700 (2.3%) of roughly 330,000 compounds were called active. This list was built around the results that the source calls inconclusive (neither active nor inactive); the mix of calls is not that of the screen. Calls come from the whole dose curve; as a rule, active = well fitted inhibition curve with a large enough effect; inconclusive = small, poorly fitted or top-dose-only effect, or effect the other way; inactive = flat fitted curve, though single readings scatter. Where the call is inconclusive, the potency comes from a doubtful curve fit.
Experiment: qHTS screen for small molecules that inhibit ELG1-dependent DNA repair in human embryonic kidney (HEK293T) cells expressing luciferase-tagged ELG1; note: nearly all actives have a fitted effect of over 55% in size
Conditions: HEK293T ELG1-luciferase reporter, luminescence, 16 h, DNA damage induced by 5-fluorouridine; activity change, negative = inhibition: at 46.1 µM (top of the series)
Summary of the method: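 5-Fluorouridine DNA damage + compound/DMSO, 2,000 cells/well, 16 h, 37 °C/5% CO2. ONE-Glo, 30 min RT, luminescence. Readout = decrease in reporter signal.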
% is set by controls: 0 for no effect and ±100 for the full control effect; potency is the fitted concentration of half-maximal effect.

Row | SMILES | Potency | activity change, negative = inhibition
1 | O=C(NNC(=O)c1ccccc1OCc1ccccc1)c1ccccc1F | inconclusive: 20.6 µM [activator, partial curve] | –
2 | O=C(C[C@H]1C/C=C\CCCCC(=O)OC[C@H]2CCCN2C1=O)N[C@H](CO)Cc1ccccc1 | – | inactive: 19.1%
3 | CCCOc1ccc(C(CC(=O)O)NC(=O)CC(c2ccccc2)c2ccccc2)cc1 (stereo not given) | inconclusive: 6.51 µM [inhibitor, partial curve, poor fit] | –
4 | O=C(C1CCCC1)N1CCN(S(=O)(=O)c2cccc(Cl)c2Cl)CC1 | – | inactive: 2.63%
5 | O=C(CN1C(=O)CNC1=O)Nc1cc(Cl)cc(Cl)c1 | – | inactive: 8.2%
6 | COc1ccc(OC)c(NC(=O)CSc2nnc(CNC(=O)c3ccco3)o2)c1 | inconclusive: 23.1 µM [activator, single point] | –
7 | CCOc1ccc(NC(=S)N2CCC(c3ccc(C)cc3)C2)cc1 (stereo not given) | – | inactive: -9.58%
8 | Cc1ccc(/C=N/NC(=O)c2cccs2)o1 | inconclusive: 23.1 µM [activator, single point] | –
9 | O=C(Nc1ccc(-c2n[nH]c(=S)o2)cc1)c1ccccc1Cl | inconclusive: 18.3 µM [activator, partial curve, poor fit] | –
10 | O=C(COc1cccc(Cl)c1)Nc1ccc2c(c1)CCC2 | inconclusive: 20.6 µM [activator, partial curve] | –
11 | CCCCOCCCNC(=O)COc1ccccc1 | – | inactive: -3.13%
12 | COc1ccc(OC)c(NC(=O)CN(Cc2ccc(Cl)cc2)S(C)(=O)=O)c1 | inconclusive: 18.3 µM [inhibitor, partial curve, poor fit] | –
13 | Cc1ccnc2nc(C(=O)Nc3nc4ccccc4s3)nn12 | inconclusive: 2.59 µM [activator, partial curve] | –
14 | CCCCn1c(=O)[nH]c(=O)c2c1nc(-c1ccc(OCCC)c(OCC)c1)n2CCOC | active: 6.51 µM | –
15 | O=C(Nc1cccc(OCC(=O)N2CCOCC2)c1)c1cccc(Cl)c1 | – | inactive: -7.49%
16 | Cc1ccc(C)c(OCC(O)CN2CCC(CN3C(=O)c4cccc5cccc(c45)C3=O)CC2)c1 (stereo not given) | inconclusive: 20.6 µM [inhibitor, partial curve] | –
17 | CC1=NN(c2nc(-c3ccccc3)cs2)C(=O)C1 | inconclusive: 29.1 µM [activator, single point] | –
18 | Cc1ncc(CO)c(/C=N/NC(=S)Nc2ccc(C(C)C)cc2)c1O | inconclusive: 4.61 µM [inhibitor, single point] | –
19 | COc1ccc(N(C(=O)c2cccnc2)S(=O)(=O)c2ccc3c4c(cccc24)C(=O)N3C)cc1 | – | inactive: -1.97%
20 | Cc1ccc(S(N)(=O)=O)cc1NC(=O)/C=C/c1cccs1 | – | inactive: 2.89%

Three structures already listed, sorted by molar mass, low to high:
Row | SMILES | Potency | activity change, negative = inhibition
11 | CCCCOCCCNC(=O)COc1ccccc1 | – | inactive: -3.13%
6 | COc1ccc(OC)c(NC(=O)CSc2nnc(CNC(=O)c3ccco3)o2)c1 | inconclusive: 23.1 µM [activator, single point] | –
2 | O=C(C[C@H]1C/C=C\CCCCC(=O)OC[C@H]2CCCN2C1=O)N[C@H](CO)Cc1ccccc1 | – | inactive: 19.1%
